For 67 sequences, z-score results are on record in PubChem BioAssay AID1347423 (Functional Genomics Laboratory (NCATS/FGL), 2020).

Hit rate of the full screen: of about 52,000 sequences, about 210 (0.4%) were called active.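 Rule for the calls: active = gene whose silencing raises cell survival under the drug, median off-target-corrected z-score across its silencing RNAs 2 or more; inactive = the rest.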 The list shows a part of the results.

This assay is described as follows: Resistance to Poly (ADP-Ribose) Polymerase inhibitor: Gene Identification via Genome-wide siRNA Screen. Conditions: mouse BRCA2 R2336H ES cells, olaparib, CellTiter-Glo viability; active compounds read high. A digest of the protocol:
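Genome-wide siRNA screen (3 siRNAs/gene, 20 nM) in mouse ES cells carrying hypomorphic BRCA2 R2336H; olaparib 500 nM added 48 h post-transfection, CellTiter-Glo viability 72 h later. Normalized to plate-median negative control; MAD z-scores, gene median, seed-adjusted.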
For orientation: Cellular ATP, detected with luciferase, serves as a proxy for viable cell number.
With CCAGCAUAGAGUACCAGUGTT against Unc13d, the z-score is inactive: -1.4. As to GGAUUACCUUUUGUGUGACTT against Capzb, the z-score was inactive: 0.325.

Regarding GGGAAAGAUUCAUGUUACUTT against Mug2, the z-score is inactive: 0.0996. For GCGAAAGCAGGAUACUCCUTT against BC051083 the value was inactive: 0.269; for GAACUGAGGAGCCUCAAAUTT against Klra20, inactive: 0.771. For GGAAGCAAAGGAAAAGACUTT against Mia2 the value was inactive: -1.39; for GGUGGAAGCCGAAGUAUCUTT against Krt1-15, inactive: -0.0557; for CAGGCAUCACUUCAGGGUGTT against Klra21, inactive: 0.47. In the case of GCCAAUUGGCAGUUCUGCATT against Cd6, the z-score is inactive: -0.171. Turning to GGUGGCUAAAAGCUCUUCCTT against Odc1, the z-score was inactive: -0.0899. For GGGUCUUCUGACAAUGCUUTT against Zfyve19, the z-score was inactive: -0.447. Take GGAGCUCAGAUGCAAUGAGTT against Zfp393: the z-score is inactive: -0.714. For GGAUAACUAUAUUCCAGUGTT against Rhobtb3 the value was inactive: -0.461; for GGUCAGGUUCCUGACACAATT against Ppp6c, inactive: -1.47. Regarding GGAGCGGAUGGAUGUUUGUTT against App, the z-score was inactive: -0.453. Take GGUAUAUUUGCCAAAUGAUTT against Klhdc1: the z-score was inactive: 0.778.

As for GGAUCUCUCACUGAUGCCATT against Ssfa2, the z-score is inactive: -0.522.

Consider CCACCAGUAAGCAAAAGCGTT against Dtx1, for which the z-score was inactive: -0.113. For “GCCUAAGUUCUAGCAAAAUTT against 4932411G14Rik”, the z-score was inactive: 0.544. Turning to GGAAAGAGGAAAUCUUUAGTT against Furin, the z-score is inactive: 0.0641. For GGAGGUUCAGAAAUUUGUCTT against Nola2, the z-score is inactive: -0.204. On to GUGUGUUUACUCAUUUCCATT against H2-T3, for which the z-score is inactive: -0.369. As to GGCAAAGUGAGUAAGACAGTT against Habp2, the z-score was inactive: -0.453.

GGAACAAAUCACCUGCUGUTT against Ext2: the z-score was inactive: 0.122. As for “GGACUCACAGGUUGAAAUATT against 1700018L24Rik”, the figure is inactive: 0.136; as for GGAAUUUUCAAGUUGAUGUTT against Kmo, inactive: -0.227; as for GGCAUUGUUAGACUUGGCCTT against Slc7a7, inactive: -0.173. For the sequence GGAUCAAUGUGUUCUCAUCTT against Cxcl5, the z-score was inactive: 0.874. For the sequence GCUUGCUCUCAUCGGAGAUTT against Bak1, the z-score was inactive: -0.954. As for GCCUAUUGUAGUGUUACAUTT against LOC545288, the z-score was inactive: 0.103. For CGGGUUUAGGAGCAACCUUTT against Zdhhc4, the z-score was inactive: -2.42. Take GCUUGAUAGGGAACUUAAUTT against Olfr805: the z-score is inactive: -0.829. As to “GCUGAAGAGGCGCAUACAUTT against 2610318N02Rik”, the z-score was inactive: -0.856. As to GGUGAUGUGGAAAAAUGCATT against Sult1e1, the z-score is inactive: 1.1.

Regarding “GCUUAGUGAGGAGAUACAATT against D8Ertd457e”, the z-score was inactive: -1.15.

Consider GGGAGAAACGCAUCUUAUCTT against Ngly1, for which the z-score was inactive: 0.252.

Regarding “GGAAUGCAUCGAGUGAAAATT against 2810432L12Rik”, the z-score is inactive: -0.984. As for GCUACAGCGGAAACUUCCUTT against D11Wsu68e, the figure is inactive: -0.0239; as for “GGAGAGAGUCAGAAAGAAGTT against D1Ertd578e”, inactive: -0.26; as for GGAGAUGUUCCACAAGAAGTT against Cacna2d3, inactive: 0.121.

Take GGGAAGUGCAUGCUCAUCUTT against Smarcal1: the z-score is inactive: -2.41. Consider GCUGUCCAAGUACGAGACATT against Atoh7, for which the z-score is inactive: -1.02. As for “GCCAGUUCAUACAAGAGGGTT against 1300003B13Rik”, the figure is inactive: -1.36; as for GGGACUUGUCCAAUAAAGUTT against Jtv1, inactive: 0.677; as for “GGAAGAACUUGUCUCUUUUTT against D330034A10Rik”, inactive: -0.725.

Turning to GCAAUUAUCGUGGUAUCCUTT against Dgat1, the z-score was inactive: 1.31. Take GGCAACUGUGUUCUCACGATT against Ddx58: the z-score was inactive: 2.44. GGUAUUCACUGUAUUUAACTT against Tm4sf3: the z-score is inactive: 0.946. Consider GGCCUGCUUCAAACAGUUUTT against Slc1a6, for which the z-score is inactive: 0.731. Take UGCUGUGCAGAAAGACUAGTT against Nkx2-6: the z-score is inactive: -1.38. Take “CCCUAACAGAUCUCAUUGATT against D030001E08”: the z-score is inactive: -1.66. As to GCAAGUAAGCCUAAGGAAATT against Pcnp, the z-score was inactive: 0.351.

On to “CCCAUUACAAUGUCACCAGTT against 1810033M07Rik”, for which the z-score was inactive: -0.516. Turning to GCAUUAAUGUGACAGCUACTT against Dhrs4, the z-score was inactive: 1.92. For the sequence GGUACUUUUCUCACUUCUATT against Srd5a2l, the z-score was inactive: 0.709. With “GCCUCUGAUGUAAACAGGATT against 2310073E15Rik”, the z-score was inactive: 1.06.

Take GGUGAGGUAGGUGAUGAGCTT against S100a17: the z-score is inactive: 0.0699. On to CCUCAUAAAUUCACUCUCCTT against Psp, for which the z-score was inactive: 0.0309. On to GGGAUGUCUUCCUAUACAGTT against Cope, for which the z-score is inactive: 0.109. As for CGAGUUUAAAGUGAGAAGATT against Pit1, the figure is inactive: 0.97; as for GGAGUCAGUGACAAGGCUCTT against Olfr54, inactive: 1.34.

For the sequence “CGAGGGAAUGCACUACAACTT against D1Bwg1363e”, the z-score is inactive: -1.89. On to GGACGAAGAGGAGAAAGAGTT against AI836003, for which the z-score is inactive: -0.825.

For GCACUGGAAUGUCAUCUCGTT against Casp3, the z-score is inactive: 0.587. As for GGUAUUCCUUGCCAUUCGGTT against Stc1, the z-score was inactive: -0.181. Take GCGAGGGAUAGAAGUCGUGTT against Itpk1: the z-score is inactive: -0.325. With GGAAUUUAAGGUGUUCACATT against Lcn3, the z-score is inactive: 0.553.
